# Test results: PubChem BioAssay AID504842 (National Center for Advancing Translational Sciences (NCATS), 2011)
# Among all 330,000 compounds or so, about 100 (0.03%) were called active. Inconclusive means that the source gave no clear call. Such entries were picked first, then a sample of the others. Calls follow the shape of the dose curve; as a rule, active = well fitted inhibition curve with a large enough effect; inconclusive = small, poorly fitted or top-dose-only effect; inactive = flat fitted curve, though single readings scatter. A potency beside an inconclusive call is a rough fit, not a confirmed value.
# System: Chaperonin Mm-Cpn (Methanococcus maripaludis)
# Assay: Inhibitors of TCP-1 ring complex (TRiC) of Methanococcus maripaludis (MmCpn): qHTS; also: nearly all actives have a fitted effect of over 80% in size;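 as to potency: enzyme at 25 nM with ATP substrate at 10 µM during the reaction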
# Settings: purified Mm-Cpn ATPase, ADP Transcreener TR-FRET
# How it was run: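 Measured: ADP formation by purified Mm-CPN. Conditions: 25 nM protein, 10 uM ATP, Tris pH 7.4 with Mg2+, K+ and DTT, 37°C for 30 min. Detection: Transcreener HTRF after 30 min at room temperature.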
# Potency is read from the fitted curve at half-maximal effect.
row,SMILES,Potency
1,Cc1c(C(=O)NCc2ccc(F)cc2)c(-c2ccccc2)nn1-c1ccccc1,inactive
2,CCCCOc1ccc(C(=O)CCN2CCCCC2)cc1,inactive
3,c1ccc(CN2CCCC3(CCCN(Cc4nc(COc5ccccc5)no4)C3)C2)cc1 (configuration not stated),inactive
4,O=C(CN1c2cccc3cccc(c23)S1(=O)=O)NCc1ccc(Cl)cc1,"inconclusive: 89.1 µM [inhibitor, single point]"
5,CC1=NOC(=O)/C1=C\c1ccc(-c2ccccc2Br)o1,"inconclusive: 100 µM [inhibitor, partial curve, poor fit]"
6,NC(=O)C1CCN(CCC(=O)Nc2ccc3c(c2)CCC3)CC1,"inconclusive: 70.8 µM [inhibitor, partial curve, poor fit]"
7,COc1ccc(NC(=S)N(CCC(C)C)C2CCN(C(C)C)CC2)cc1Cl,"inconclusive: 100 µM [inhibitor, single point]"
8,Cc1cc([N+](=O)[O-])nn1CC(=O)NCc1ccc(Cl)cc1,"inconclusive: 89.1 µM [inhibitor, single point]"
9,COc1cccc(-c2noc(C3CCCN(C(=O)c4cccc(F)c4)C3)n2)c1 (configuration not stated),"inconclusive: 14.1 µM [inhibitor, single point]"
10,O=C(CN1C(=O)/C(=C/c2ccccc2Cl)SC1=S)NC1C=CS(=O)(=O)C1 (configuration not stated),"inconclusive: 100 µM [inhibitor, single point]"
11,C=CCn1c(NS(=O)(=O)c2ccccc2)c(S(=O)(=O)c2ccc(C)cc2)c2nc3ccccc3nc21,"inconclusive: 100 µM [inhibitor, single point]"
12,Cc1[nH]n(-c2ncc(-c3ccccc3)s2)c(=O)c1C(c1ccc(Cl)cc1)C(C#N)C#N (configuration not stated),inactive
13,Cc1ccc(-c2cc(C(=O)Nc3cc(C)on3)c3ccccc3n2)cc1,"inconclusive: 28.2 µM [inhibitor, single point]"
14,CCN(CC)S(=O)(=O)c1ccc2c(c1)nc(CCC(=O)Nc1cccc(C(F)(F)F)c1)n2CC,inactive
15,Cc1ccc2nc(SCC(=O)Nc3ccc(C)c(Cl)c3)nc(=O)n2c1,"inconclusive: 70.8 µM [inhibitor, single point]"
16,Cc1ccc(-c2nc3cccnc3s2)cc1NS(=O)(=O)c1ccc2c(c1)OCCO2,"inconclusive: 112 µM [inhibitor, partial curve, poor fit]"
17,N/C(=N\OC(=O)Cc1ccccc1)c1ccc([N+](=O)[O-])cc1,inactive
18,COc1cc(/C=C(\C#N)C(=O)Nc2cccc(C(=O)O)c2)ccc1OCc1ccc(Cl)cc1,inactive
19,N#Cc1ccccc1OCC(=O)NC(N)=O,inactive
20,C=CCN1C(=O)/C(=C/c2ccc(O)c(OC)c2)S/C1=N/c1nccs1,inactive
21,CCOC(=O)C1=C(C)N(c2ccc(Cl)cc2)C(=O)NC1c1cccc([N+](=O)[O-])c1 (configuration not stated),"inconclusive: 15.8 µM [inhibitor, single point]"
22,CCOC(=O)N1CCc2c(sc3c2c(=O)n(Cc2ccccc2)c(=O)n3Cc2ccc(C)cc2)C1,"inconclusive: 100 µM [inhibitor, single point]"
23,CCc1cc2c(SCC(=O)N(CC)c3c(N)n(Cc4ccccc4)c(=O)[nH]c3=O)ncnc2s1,"inconclusive: 28.2 µM [inhibitor, single point]"
24,N#Cc1ccccc1NC(=O)COC(=O)/C=C/c1cn(-c2ccccc2)nc1-c1ccc(Cl)cc1,inactive

row,SMILES,Potency
1,O=C1CSc2ccc(C(=O)NCc3ccccn3)cc2N1,"inconclusive: 14.1 µM [inhibitor, single point]"
2,COC(=O)c1ccc(-c2nc3ccc(C)cc3o2)cc1,"inconclusive: 100 µM [inhibitor, single point]"
3,COc1ccc(C)cc1-n1nnnc1SCC(=O)c1ccc2c(c1)OCCO2,"inconclusive: 141 µM [inhibitor, partial curve, poor fit]"
4,CCC(=O)N/C=C/n1cnc2cc(C(F)(F)F)ccc21,"inconclusive: 20 µM [inhibitor, single point]"
5,CC(C)c1ccccc1OCCNC(=O)c1cccnc1,"inconclusive: 89.1 µM [inhibitor, single point]"
6,Cc1ccc2c(c1)NC(=O)C(CC(=O)Nc1ccc(CN3CCC(C)CC3)cc1)O2 (configuration not stated),inactive
7,COc1ccc(CNC(=O)c2nc(S(=O)(=O)Cc3ccccc3)ncc2Cl)cc1,inactive
8,COc1ccc(OCCCn2c(=O)oc3ccccc32)cc1,"inconclusive: 100 µM [inhibitor, single point]"
9,Oc1c(C=Nc2ccccc2)sc2ccccc12,inactive
10,COc1ccc2[nH]c(-c3ccc(C)cc3)cc(=O)c2c1,inactive
11,O=C(Nc1cccc(S(=O)(=O)NCc2ccco2)c1)c1cc(-c2ccccc2)nc2ccccc12,"inconclusive: 398 µM [inhibitor, partial curve, poor fit]"
12,COc1ccc(Cl)cc1C(=O)NNC(=O)c1n[nH]c2ccccc12,"inconclusive: 20 µM [inhibitor, single point]"
13,Cc1cccc(OCCC(=O)OCc2csc(CC(=O)Nc3ccccc3C)n2)c1,"inconclusive: 126 µM [inhibitor, partial curve, poor fit]"
14,Cc1nc(NC(=O)C(Cl)Cl)sc1C(=O)N(C)C,inactive
15,CCn1c(=NC(=O)c2ccc(N3C(=O)CCC3=O)cc2)sc2c(OC)ccc(OC)c21,inactive
16,N#Cc1c(-c2ccccc2F)cc(C2CC2)nc1SCC(=O)c1cccs1,"inconclusive: 56.2 µM [inhibitor, partial curve, poor fit]"
17,NC(=O)c1ccc(SCC(=O)OCC(=O)N2CCN(C(=O)c3ccco3)CC2)c([N+](=O)[O-])c1,inactive
18,CCOC(=O)c1cnc(Nc2nc3ccccc3o2)nc1C,"inconclusive: 22.4 µM [inhibitor, single point]"
19,CCOc1ccc(C2=Nc3ccc(Br)cc3C(c3ccc(N4CCOCC4)cc3)=NN2)cc1,inactive
20,CCn1c(C)c(C2=CCN(S(=O)(=O)c3ccc(C)cc3)CC2)c2ccccc21,"inconclusive: 100 µM [inhibitor, partial curve, poor fit]"
21,CC(=O)c1cccc(NC(=O)c2c(-c3c(F)cccc3Cl)noc2C)c1,inactive
22,CCN1C(=S)N[C@@H](c2cccs2)C(C(=O)OC)=C1C,"inconclusive: 15.8 µM [inhibitor, single point]"
23,O=C(COC(=O)C1CCN(c2ccc(C(F)(F)F)cn2)CC1)c1ccccc1,"inconclusive: 20 µM [inhibitor, single point]"
24,O=C(CSc1nc2ccccc2c(=O)[nH]1)c1ccccc1,"inconclusive: 224 µM [inhibitor, partial curve, poor fit]"

row,SMILES,Potency
1,O=C(Nc1nc2c(Cl)ccc(Cl)c2s1)c1ccco1,"inconclusive: 100 µM [inhibitor, single point]"
2,Cc1ccc(NC(=O)CCCSc2nc3ccccc3[nH]2)cc1,inactive
3,CCC(C)NC(=O)c1ccc(CS(=O)(=O)c2ccc(OC)cc2)o1 (configuration not stated),inactive
4,COc1ccc(CCNc2nc(=S)[nH]c3cc(OC)c(OC)cc23)cc1OC,inactive
5,CN(CC(=O)Nc1cccc(F)c1)C(=O)c1sccc1-c1ccccc1,inactive
6,N#Cc1c(NC(=O)CSc2n[nH]c(Cc3ccccc3)n2)oc(-c2ccccc2)c1-c1ccccc1,inactive
7,CC(=O)NCCc1nc2cc(NS(=O)(=O)c3ccc(Cl)cc3)ccc2n1C,"inconclusive: 39.8 µM [inhibitor, single point]"
8,NC(=O)SCC(=O)Nc1ccc(Cl)c(Cl)c1,"inconclusive: 100 µM [inhibitor, partial curve, poor fit]"
9,O=C1CC(NNc2ccccc2)C(=O)N1c1ccccc1 (configuration not stated),inactive
10,O=C1c2oc3ccc(Cl)cc3c(=O)c2C(c2cccc(Br)c2)N1CCO (configuration not stated),inactive
11,Clc1ccc2c(NNc3ccccc3Cl)ccnc2c1,"inconclusive: 15.8 µM [inhibitor, single point]"
12,O=C(/C=C/c1ccccc1)NC1CC2CCCC(C1)N2Cc1ccccc1 (configuration not stated),inactive
13,COc1cc(NS(=O)(=O)c2ccc(NC(=O)COc3cccc(C)c3)cc2)nc(OC)n1,inactive
14,O=C(NCc1ccccc1)NC1CCCCC1,"inconclusive: 56.2 µM [inhibitor, single point]"
15,O=C(Nc1cccnc1)c1cc2nc(C3CC3)cc(C(F)(F)F)n2n1,"inconclusive: 22.4 µM [inhibitor, single point]"
16,COc1ccc(OC)c(NC(=O)CSc2nnc(C)n2Cc2ccccc2)c1,inactive
17,COCCNc1nc2c(S(=O)(=O)c3cc(C)ccc3C)nnn2c2ccccc12,"inconclusive: 22.4 µM [inhibitor, single point]"
18,CCOc1ccc(NS(=O)(=O)c2ccc3[nH]cc(C(=O)NCC4CCCO4)c(=O)c3c2)cc1 (configuration not stated),inactive
19,CN(C)S(=O)(=O)c1ccc2nc(NC(=O)c3cccs3)sc2c1,"inconclusive: 79.4 µM [inhibitor, single point]"
20,Cc1cc(OCc2cc(C(=O)NCC3(C)COC3)no2)cc(C)c1Cl,"inconclusive: 31.6 µM [inhibitor, single point]"
21,CN1CCN(C(=S)c2ccc(-c3cccc([N+](=O)[O-])c3)o2)CC1,inactive
22,CCOC(=O)c1ccc(NC(=O)c2ccc3c(c2)C(=O)N(Cc2cccnc2)C3=O)cc1,"inconclusive: 28.2 µM [inhibitor, single point]"
23,COc1ccc(NC(=O)CSc2nc3sc4c(c3c(=O)n2-c2ccc(OC)cc2)CCN(C)C4)cc1,"inconclusive: 100 µM [inhibitor, single point]"
24,CCN(CC)S(=O)(=O)c1ccc(N(C)C)c(NC(=O)CC(NC(C)=O)c2ccccc2)c1 (configuration not stated),"inconclusive: 12.6 µM [inhibitor, single point]"

# Grouped by structure, the entries above with bromine (3)
row,SMILES,Potency
5,CC1=NOC(=O)/C1=C\c1ccc(-c2ccccc2Br)o1,"inconclusive: 100 µM [inhibitor, partial curve, poor fit]"
19,CCOc1ccc(C2=Nc3ccc(Br)cc3C(c3ccc(N4CCOCC4)cc3)=NN2)cc1,inactive
10,O=C1c2oc3ccc(Cl)cc3c(=O)c2C(c2cccc(Br)c2)N1CCO (configuration not stated),inactive
